Test results from the supplement of paper PMC12067093, “Discovery and optimisation of a covalent ligand for TRIM25 and its application to targeted protein ubiquitination” (Chemical Science, 2025).
The list shows a part of the results.

Amino acid sequences for entries named in this document (tags omitted). A change or cut given only in a name is not applied to a line headed by its entry.
UniProt Q6FI81: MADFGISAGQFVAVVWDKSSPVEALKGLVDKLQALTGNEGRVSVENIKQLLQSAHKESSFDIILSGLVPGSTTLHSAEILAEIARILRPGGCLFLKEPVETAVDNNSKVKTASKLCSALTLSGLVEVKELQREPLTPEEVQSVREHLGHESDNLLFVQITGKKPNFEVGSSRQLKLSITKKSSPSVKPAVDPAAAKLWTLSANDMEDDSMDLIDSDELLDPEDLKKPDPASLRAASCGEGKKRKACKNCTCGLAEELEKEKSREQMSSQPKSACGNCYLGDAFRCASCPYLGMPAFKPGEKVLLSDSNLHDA
UniProt Q9Y259: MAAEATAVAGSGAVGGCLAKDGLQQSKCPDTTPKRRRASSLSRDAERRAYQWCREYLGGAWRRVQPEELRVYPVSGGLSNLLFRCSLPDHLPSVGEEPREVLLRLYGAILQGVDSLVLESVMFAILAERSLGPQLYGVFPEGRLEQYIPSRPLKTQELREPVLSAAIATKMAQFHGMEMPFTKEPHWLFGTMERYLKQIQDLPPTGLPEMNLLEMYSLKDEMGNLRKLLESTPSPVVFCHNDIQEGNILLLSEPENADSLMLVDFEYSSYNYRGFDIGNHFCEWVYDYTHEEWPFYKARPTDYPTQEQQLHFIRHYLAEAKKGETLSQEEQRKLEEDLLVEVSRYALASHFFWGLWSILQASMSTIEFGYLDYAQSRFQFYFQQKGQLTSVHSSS
UniProt O75122: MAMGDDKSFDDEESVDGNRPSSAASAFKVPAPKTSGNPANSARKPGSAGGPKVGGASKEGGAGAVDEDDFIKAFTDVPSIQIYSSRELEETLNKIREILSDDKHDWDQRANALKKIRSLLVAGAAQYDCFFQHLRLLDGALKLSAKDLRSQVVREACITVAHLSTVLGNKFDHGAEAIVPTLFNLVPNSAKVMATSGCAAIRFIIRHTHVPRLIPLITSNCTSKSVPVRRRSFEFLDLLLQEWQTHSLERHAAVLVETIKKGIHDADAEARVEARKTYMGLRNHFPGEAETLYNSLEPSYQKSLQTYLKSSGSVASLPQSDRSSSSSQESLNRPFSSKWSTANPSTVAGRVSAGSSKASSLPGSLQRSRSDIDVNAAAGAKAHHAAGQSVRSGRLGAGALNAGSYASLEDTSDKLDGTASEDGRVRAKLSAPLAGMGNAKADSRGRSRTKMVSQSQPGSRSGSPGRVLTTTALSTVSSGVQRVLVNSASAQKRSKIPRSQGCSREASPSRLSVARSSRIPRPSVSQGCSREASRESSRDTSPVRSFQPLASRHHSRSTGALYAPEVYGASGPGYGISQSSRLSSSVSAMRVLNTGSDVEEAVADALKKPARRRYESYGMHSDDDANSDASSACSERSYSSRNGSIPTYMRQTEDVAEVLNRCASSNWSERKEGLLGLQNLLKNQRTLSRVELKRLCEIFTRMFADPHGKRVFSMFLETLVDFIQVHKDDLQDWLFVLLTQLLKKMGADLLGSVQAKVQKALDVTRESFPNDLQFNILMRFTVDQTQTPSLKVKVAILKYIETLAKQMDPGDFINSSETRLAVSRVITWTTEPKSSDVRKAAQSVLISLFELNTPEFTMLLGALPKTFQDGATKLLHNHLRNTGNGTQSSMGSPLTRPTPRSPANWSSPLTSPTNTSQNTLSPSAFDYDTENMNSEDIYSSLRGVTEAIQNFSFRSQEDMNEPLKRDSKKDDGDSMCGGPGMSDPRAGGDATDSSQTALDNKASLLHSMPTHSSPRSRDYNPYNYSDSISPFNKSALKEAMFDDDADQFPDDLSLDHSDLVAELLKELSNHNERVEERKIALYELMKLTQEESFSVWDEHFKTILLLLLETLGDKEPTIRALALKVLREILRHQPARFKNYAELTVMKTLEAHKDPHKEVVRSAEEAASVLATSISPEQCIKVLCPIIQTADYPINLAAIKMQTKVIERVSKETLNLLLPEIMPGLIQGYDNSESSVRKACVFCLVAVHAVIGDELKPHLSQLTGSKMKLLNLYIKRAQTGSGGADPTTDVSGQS
UniProt Q86WJ1: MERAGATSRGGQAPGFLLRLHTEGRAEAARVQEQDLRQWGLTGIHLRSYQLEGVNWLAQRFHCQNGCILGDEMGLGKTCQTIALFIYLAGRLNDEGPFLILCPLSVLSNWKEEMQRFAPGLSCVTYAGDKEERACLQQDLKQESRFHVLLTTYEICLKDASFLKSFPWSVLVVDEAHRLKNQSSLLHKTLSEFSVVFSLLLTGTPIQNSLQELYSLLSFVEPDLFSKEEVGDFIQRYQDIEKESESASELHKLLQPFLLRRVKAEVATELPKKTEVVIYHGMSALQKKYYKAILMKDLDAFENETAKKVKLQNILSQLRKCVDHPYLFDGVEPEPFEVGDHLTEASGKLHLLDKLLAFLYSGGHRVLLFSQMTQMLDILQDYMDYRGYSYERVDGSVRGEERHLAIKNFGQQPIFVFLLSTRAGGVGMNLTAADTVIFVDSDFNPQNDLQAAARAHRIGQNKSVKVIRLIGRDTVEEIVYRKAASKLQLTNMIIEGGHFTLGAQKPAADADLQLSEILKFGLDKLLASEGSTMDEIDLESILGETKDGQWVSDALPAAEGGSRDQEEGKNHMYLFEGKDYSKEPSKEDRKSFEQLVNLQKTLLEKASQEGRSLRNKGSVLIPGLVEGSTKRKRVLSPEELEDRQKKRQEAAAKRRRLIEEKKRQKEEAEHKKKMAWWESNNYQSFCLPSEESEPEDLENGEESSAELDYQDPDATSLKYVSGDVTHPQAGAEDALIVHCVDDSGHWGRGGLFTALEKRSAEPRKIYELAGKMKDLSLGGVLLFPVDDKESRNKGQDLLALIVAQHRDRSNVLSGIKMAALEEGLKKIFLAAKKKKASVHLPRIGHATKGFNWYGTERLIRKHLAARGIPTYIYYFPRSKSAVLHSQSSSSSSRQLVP
UniProt P0C7P0: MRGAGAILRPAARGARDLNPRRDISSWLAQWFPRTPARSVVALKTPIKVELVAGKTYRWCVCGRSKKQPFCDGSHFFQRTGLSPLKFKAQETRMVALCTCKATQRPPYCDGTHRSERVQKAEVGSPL
UniProt Q9UHD1: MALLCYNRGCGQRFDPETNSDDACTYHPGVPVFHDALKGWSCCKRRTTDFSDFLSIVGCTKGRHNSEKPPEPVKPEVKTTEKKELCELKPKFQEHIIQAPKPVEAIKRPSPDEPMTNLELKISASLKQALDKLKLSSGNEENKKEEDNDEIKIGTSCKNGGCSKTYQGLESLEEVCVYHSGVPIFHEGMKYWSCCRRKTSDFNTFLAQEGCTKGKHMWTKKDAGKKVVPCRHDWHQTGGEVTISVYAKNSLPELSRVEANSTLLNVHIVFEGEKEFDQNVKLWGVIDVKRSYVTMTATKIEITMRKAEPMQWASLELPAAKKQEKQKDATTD
UniProt Q14008: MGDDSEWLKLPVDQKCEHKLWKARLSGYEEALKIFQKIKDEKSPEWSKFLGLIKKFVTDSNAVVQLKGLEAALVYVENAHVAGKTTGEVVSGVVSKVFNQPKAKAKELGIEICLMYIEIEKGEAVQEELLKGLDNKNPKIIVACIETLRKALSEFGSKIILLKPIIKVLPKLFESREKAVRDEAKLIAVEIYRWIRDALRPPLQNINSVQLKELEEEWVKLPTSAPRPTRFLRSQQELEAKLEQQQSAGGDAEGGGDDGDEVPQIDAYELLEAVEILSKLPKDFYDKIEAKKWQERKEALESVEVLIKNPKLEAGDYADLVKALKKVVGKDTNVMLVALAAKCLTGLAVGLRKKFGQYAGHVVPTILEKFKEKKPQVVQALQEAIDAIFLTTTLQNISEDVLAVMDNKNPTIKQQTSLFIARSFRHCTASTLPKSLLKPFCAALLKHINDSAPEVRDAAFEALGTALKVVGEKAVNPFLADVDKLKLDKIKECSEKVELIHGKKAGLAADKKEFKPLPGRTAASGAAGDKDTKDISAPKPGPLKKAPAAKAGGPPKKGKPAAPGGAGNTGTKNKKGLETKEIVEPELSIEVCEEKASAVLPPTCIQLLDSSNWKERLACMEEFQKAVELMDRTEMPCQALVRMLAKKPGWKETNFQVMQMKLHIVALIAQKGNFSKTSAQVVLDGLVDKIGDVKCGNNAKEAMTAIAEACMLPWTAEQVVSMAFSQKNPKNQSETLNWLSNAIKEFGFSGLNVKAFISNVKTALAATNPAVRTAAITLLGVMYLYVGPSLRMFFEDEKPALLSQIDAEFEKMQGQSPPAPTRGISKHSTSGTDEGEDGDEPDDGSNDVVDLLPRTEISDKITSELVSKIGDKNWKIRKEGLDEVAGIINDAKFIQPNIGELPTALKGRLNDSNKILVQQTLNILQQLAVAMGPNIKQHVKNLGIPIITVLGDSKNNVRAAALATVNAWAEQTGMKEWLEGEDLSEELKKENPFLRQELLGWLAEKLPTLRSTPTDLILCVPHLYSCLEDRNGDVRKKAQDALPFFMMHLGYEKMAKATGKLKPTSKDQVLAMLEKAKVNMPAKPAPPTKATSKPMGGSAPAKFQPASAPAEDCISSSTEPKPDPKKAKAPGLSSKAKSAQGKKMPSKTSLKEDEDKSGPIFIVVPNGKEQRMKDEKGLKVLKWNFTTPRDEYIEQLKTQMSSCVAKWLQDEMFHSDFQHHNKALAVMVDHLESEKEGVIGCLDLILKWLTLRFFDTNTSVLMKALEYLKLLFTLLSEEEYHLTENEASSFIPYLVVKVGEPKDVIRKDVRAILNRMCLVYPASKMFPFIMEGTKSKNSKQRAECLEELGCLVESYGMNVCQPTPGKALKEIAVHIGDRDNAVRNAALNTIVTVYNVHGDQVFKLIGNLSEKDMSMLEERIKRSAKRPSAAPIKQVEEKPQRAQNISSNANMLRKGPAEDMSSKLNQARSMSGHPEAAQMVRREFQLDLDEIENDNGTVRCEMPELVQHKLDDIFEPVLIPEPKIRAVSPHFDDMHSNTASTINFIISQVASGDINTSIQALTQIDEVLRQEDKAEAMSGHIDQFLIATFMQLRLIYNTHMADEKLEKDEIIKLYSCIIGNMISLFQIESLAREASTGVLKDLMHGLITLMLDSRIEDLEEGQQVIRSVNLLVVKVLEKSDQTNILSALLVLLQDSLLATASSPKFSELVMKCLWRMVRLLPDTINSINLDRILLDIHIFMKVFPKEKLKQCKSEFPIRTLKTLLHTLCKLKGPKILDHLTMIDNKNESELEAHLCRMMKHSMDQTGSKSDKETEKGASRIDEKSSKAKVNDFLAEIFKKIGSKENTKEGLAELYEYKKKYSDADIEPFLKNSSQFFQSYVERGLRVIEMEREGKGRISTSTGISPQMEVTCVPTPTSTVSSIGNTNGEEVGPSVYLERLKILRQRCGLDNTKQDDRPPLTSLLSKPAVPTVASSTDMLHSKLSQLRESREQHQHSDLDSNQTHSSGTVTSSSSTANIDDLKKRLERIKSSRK
UniProt Q9NRP2: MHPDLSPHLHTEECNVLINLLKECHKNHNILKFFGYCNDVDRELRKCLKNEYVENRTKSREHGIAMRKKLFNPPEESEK
UniProt O76031, whole entry, looked up: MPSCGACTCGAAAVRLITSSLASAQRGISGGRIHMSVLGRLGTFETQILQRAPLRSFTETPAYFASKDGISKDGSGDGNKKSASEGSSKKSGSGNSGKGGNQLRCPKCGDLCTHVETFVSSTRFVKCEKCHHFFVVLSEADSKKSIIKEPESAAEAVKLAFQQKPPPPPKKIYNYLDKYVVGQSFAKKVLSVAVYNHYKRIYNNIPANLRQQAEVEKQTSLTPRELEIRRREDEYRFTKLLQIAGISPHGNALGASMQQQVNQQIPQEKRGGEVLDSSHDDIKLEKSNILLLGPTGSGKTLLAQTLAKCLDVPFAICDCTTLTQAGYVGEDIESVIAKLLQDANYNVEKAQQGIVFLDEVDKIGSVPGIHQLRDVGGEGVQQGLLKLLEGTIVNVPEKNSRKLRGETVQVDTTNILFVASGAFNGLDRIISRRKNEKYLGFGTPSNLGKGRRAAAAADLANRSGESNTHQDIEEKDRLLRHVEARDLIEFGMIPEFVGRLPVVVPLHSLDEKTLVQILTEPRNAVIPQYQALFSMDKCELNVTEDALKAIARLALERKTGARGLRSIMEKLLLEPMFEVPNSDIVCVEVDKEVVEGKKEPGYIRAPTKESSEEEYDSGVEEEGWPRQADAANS
UniProt P36222, whole entry, looked up: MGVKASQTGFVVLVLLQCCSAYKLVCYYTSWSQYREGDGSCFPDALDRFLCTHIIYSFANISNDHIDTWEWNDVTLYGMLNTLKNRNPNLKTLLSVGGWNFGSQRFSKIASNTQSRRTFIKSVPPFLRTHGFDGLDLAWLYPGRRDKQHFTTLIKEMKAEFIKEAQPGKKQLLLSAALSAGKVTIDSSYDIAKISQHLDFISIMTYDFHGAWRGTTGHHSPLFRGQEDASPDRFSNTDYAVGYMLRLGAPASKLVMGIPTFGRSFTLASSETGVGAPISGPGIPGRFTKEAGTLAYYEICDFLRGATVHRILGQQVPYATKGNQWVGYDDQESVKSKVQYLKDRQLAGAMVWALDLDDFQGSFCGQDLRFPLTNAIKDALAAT

Compound: Cc1cc(ccc1-c1ccccc1)C(=O)N1CCCN(CC1)C(=O)CCl [compound 10]
Experiment: probe-labelled cysteine peptide fold change vs DMSO (competition) (log2 fold change); higher = less target engagement (more negative = stronger competition)
Conditions: THP-1, incubation time: 4 h
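Further: competitive profiling in live THP-1 cells: cysteine peptides tagged with an iodoacetamide desthiobiotin (IA-DTB) probe, intensity after compound treatment relative to DMSO-treated cells.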

CIAPIN1_Q6FI81_274_SACGNCYLGDAFR (UniProt Q6FI81)
probe-labelled cysteine peptide fold change (10 µM): -0.147 | probe-labelled cysteine peptide fold change (50 µM): -0.606

CLTC_Q00610_436_YESLELCR (UniProt Q00610)
probe-labelled cysteine peptide fold change (10 µM): 0.0128 | probe-labelled cysteine peptide fold change (50 µM): 0.398

CHKB_Q9Y259_282_GFDIGNHFCEWVYDYTHEEWPFYK (UniProt Q9Y259)
probe-labelled cysteine peptide fold change (10 µM): 0.214 | probe-labelled cysteine peptide fold change (50 µM): 0.198

CLTC_Q00610_292_YGYIHLYDLETGTCIYMNR (UniProt Q00610)
probe-labelled cysteine peptide fold change (10 µM): 0.277 | probe-labelled cysteine peptide fold change (50 µM): 0.445

CHAF1B_Q13112_6_VITCEIAWHNK (UniProt Q13112)
probe-labelled cysteine peptide fold change (10 µM): 0.0145 | probe-labelled cysteine peptide fold change (50 µM): 0.0667

CLASP2_O75122_976_KDDGDSMCGGPGMSDPR (UniProt O75122)
probe-labelled cysteine peptide fold change (10 µM): -0.321 | probe-labelled cysteine peptide fold change (50 µM): -0.453

CLTC_Q00610_934_GQCDLELINVCNENSLFK (UniProt Q00610)
probe-labelled cysteine peptide fold change (10 µM): 0.138 | probe-labelled cysteine peptide fold change (50 µM): 0.156

CHD1L_Q86WJ1_156_FHVLLTTYEICLK (UniProt Q86WJ1)
probe-labelled cysteine peptide fold change (10 µM): 0.0398 | probe-labelled cysteine peptide fold change (50 µM): 0.295

CLASP2_O75122_129_SLLVAGAAQYDCFFQHLR (UniProt O75122)
probe-labelled cysteine peptide fold change (10 µM): -0.366 | probe-labelled cysteine peptide fold change (50 µM): -0.222

CLIP1_P30622_265_YFQCQPK (UniProt P30622)
probe-labelled cysteine peptide fold change (10 µM): 0.0956 | probe-labelled cysteine peptide fold change (50 µM): 0.0426

CISD3_P0C7P0_98_MVALCTCK (UniProt P0C7P0)
probe-labelled cysteine peptide fold change (10 µM): -0.00922 | probe-labelled cysteine peptide fold change (50 µM): -0.156

CHORDC1_Q9UHD1_59_TTDFSDFLSIVGCTK (UniProt Q9UHD1)
probe-labelled cysteine peptide fold change (10 µM): 0.109 | probe-labelled cysteine peptide fold change (50 µM): 0.0902

CKAP5_Q14008_1019_STPTDLILCVPHLYSCLEDR (UniProt Q14008)
probe-labelled cysteine peptide fold change (10 µM): -0.0401 | probe-labelled cysteine peptide fold change (50 µM): 0.165

CHD8_Q9HCK8_2300_LVELEVECMEEPNHLDVDLETR (UniProt Q9HCK8)
probe-labelled cysteine peptide fold change (10 µM): -0.286 | probe-labelled cysteine peptide fold change (50 µM): -0.239

CLEC11A_Q9Y240_319_LYYVCEFPF (UniProt Q9Y240)
probe-labelled cysteine peptide fold change (10 µM): -0.333 | probe-labelled cysteine peptide fold change (50 µM): -0.19

CHEK1_O14757_48_AVDCPENIK (UniProt O14757)
probe-labelled cysteine peptide fold change (10 µM): -0.255 | probe-labelled cysteine peptide fold change (50 µM): 0.47

CLPB_Q9H078_647_VVNQLAAAYEQDLLPGGCTLR (UniProt Q9H078)
probe-labelled cysteine peptide fold change (10 µM): 0.223 | probe-labelled cysteine peptide fold change (50 µM): 0.42

CLK3_P49761_294_EGHLVCR (UniProt P49761)
probe-labelled cysteine peptide fold change (10 µM): 0.0229 | probe-labelled cysteine peptide fold change (50 µM): 0.42

CHST13_Q8NET6_81_DLLNSACSR (UniProt Q8NET6)
probe-labelled cysteine peptide fold change (10 µM): -0.0161 | probe-labelled cysteine peptide fold change (50 µM): -0.121

CMIP_Q8IY22_455_TLGCYVEILK (UniProt Q8IY22)
probe-labelled cysteine peptide fold change (10 µM): 0.249 | probe-labelled cysteine peptide fold change (50 µM): -0.172

CIAO1_O76071_261_TIYDIAWCQLTGALATACGDDAIR (UniProt O76071)
probe-labelled cysteine peptide fold change (10 µM): 0.161 | probe-labelled cysteine peptide fold change (50 µM): -0.164

CKAP5_Q14008_1768_TLLHTLCK (UniProt Q14008)
probe-labelled cysteine peptide fold change (10 µM): 0.00289 | probe-labelled cysteine peptide fold change (50 µM): -0.111

CIP2A_Q8TCG1_472_VADSELCK (UniProt Q8TCG1)
probe-labelled cysteine peptide fold change (10 µM): 0.274 | probe-labelled cysteine peptide fold change (50 µM): -0.0813

CLIC6_Q96NY7_641_FLDGDELTLADCNLLPK (UniProt Q96NY7)
probe-labelled cysteine peptide fold change (10 µM): -0.2 | probe-labelled cysteine peptide fold change (50 µM): 0.264

CMC2_Q9NRP2_14_MHPDLSPHLHTEECNVLINLLK (UniProt Q9NRP2)
probe-labelled cysteine peptide fold change (10 µM): -0.179 | probe-labelled cysteine peptide fold change (50 µM): 0.174

CHD4_Q14839_1018+1019_CCNHPYLFPVAAMEAPK (UniProt Q14839)
probe-labelled cysteine peptide fold change (10 µM): -0.0328 | probe-labelled cysteine peptide fold change (50 µM): -0.421

CHKB_Q9Y259_85_CSLPDHLPSVGEEPREVLLR (UniProt Q9Y259)
probe-labelled cysteine peptide fold change (10 µM): 0.0237 | probe-labelled cysteine peptide fold change (50 µM): 0.406

CIZ1_Q9ULV3_631_LGEIQHMSQACLLSLLPVPR (UniProt Q9ULV3)
probe-labelled cysteine peptide fold change (10 µM): 0.16 | probe-labelled cysteine peptide fold change (50 µM): -0.196

CLPX_O76031_586_LLLEPMFEVPNSDIVCVEVDK (UniProt O76031)
probe-labelled cysteine peptide fold change (10 µM): -0.337 | probe-labelled cysteine peptide fold change (50 µM): -0.0886

CLIC1_O00299_178_KFLDGNELTLADCNLLPK (UniProt O00299)
probe-labelled cysteine peptide fold change (10 µM): -0.0831 | probe-labelled cysteine peptide fold change (50 µM): -0.362

CLIC1_O00299_24_IGNCPFSQR (UniProt O00299)
probe-labelled cysteine peptide fold change (10 µM): -0.71 | probe-labelled cysteine peptide fold change (50 µM): -0.744

CLUH_O75153_84_ILAPGIEPFSLQVSPQEMVQEIHQVLMDREDTCHR (UniProt O75153)
probe-labelled cysteine peptide fold change (10 µM): 0.0397 | probe-labelled cysteine peptide fold change (50 µM): -0.121

CHD1L_Q86WJ1_123_FAPGLSCVTYAGDKEER (UniProt Q86WJ1)
probe-labelled cysteine peptide fold change (10 µM): -0.185 | probe-labelled cysteine peptide fold change (50 µM): -0.322

CHI3L1_P36222_41_EGDGSCFPDALDR (UniProt P36222)
probe-labelled cysteine peptide fold change (10 µM): -0.177 | probe-labelled cysteine peptide fold change (50 µM): -0.289

CLTC_Q00610_39_FQEHLQLQNLGINPANIGFSTLTMESDKFICIR (UniProt Q00610)
probe-labelled cysteine peptide fold change (10 µM): -0.282 | probe-labelled cysteine peptide fold change (50 µM): -0.594

CLTC_Q00610_1257_EVCFACVDGK (UniProt Q00610)
probe-labelled cysteine peptide fold change (10 µM): -0.0958 | probe-labelled cysteine peptide fold change (50 µM): 0.161

CIAO2A_Q9H5X1_155_EIVEQCVLEPD (UniProt Q9H5X1)
probe-labelled cysteine peptide fold change (10 µM): -0.43 | probe-labelled cysteine peptide fold change (50 µM): -0.0552

CIAO2B_Q9Y3D0_158_VAAALENTHLLEVVNQCLSAR (UniProt Q9Y3D0)
probe-labelled cysteine peptide fold change (10 µM): -0.0331 | probe-labelled cysteine peptide fold change (50 µM): -0.264

CIAPIN1_Q6FI81_92_ILRPGGCLFLK (UniProt Q6FI81)
probe-labelled cysteine peptide fold change (10 µM): -0.0886 | probe-labelled cysteine peptide fold change (50 µM): -0.145
